No constants are given. Whether binding was seen depends on the method and setting. Some results given as binding are weak or reduced against the parent protein; the word gives no strength.
Key:
[1] = biological target: recombinant HER2 ectodomain (human) (UniProt P04626); assay: column shift assay: gel filtration monitored at A280, diabody pre-incubated with recombinant HER2 ectodomain
[2] = biological target: recombinant HER2 ectodomain (human) (UniProt P04626); assay: column shift assay (figure legend)
[3] = biological target: recombinant HER2 ectodomain (human) (UniProt P04626); assay: column shift assay (gel filtration), soluble antigen

Measured: binding

B1: AVP07-63 anti-HER2 diabody with cysteine replacement mutations in VL FR1 (Kabat 8 and 12) and an engineered N-terminal serine (protein)
chain: SVQLVQSGAEVKKPGESLKISCKGSGYSFTSYWIAWVRQMPGKGLEYMGLIYPGDSDTKYSPSFQGQVTISVDKSVSTAYLQWSSLKPSDSAVYFCARHDVGYASSSNAAKWPEYFQHWGQGTLVTVSSGGGGSQSVLTQPCSSCAAPGQKVTISCSGSSSNIGNNYVSWYQQLPGTVPKLLIYGHTNRPAGVPDRFSGSKSGTSASLAISGFRSEDEADYYCAAWDDSLSGWVFGGGTKLTVLGAAAEQKLISEEDLNGAAHHHHHH
binds: all assays above

Source: US20120171115A1 (AVIPEP, published 2012)
